Reference: patent publication US20240308956A1, “LIPOPHILIC LITHIUM SALTS FOR DIRECT DISSOLUTION IN ORGANIC SCINTILLATORS” (Lawrence Livermore National Security, LLC, priority 2022, published 2024)

Assay: Scintillation light output (LO) from ^137Cs gamma-ray response, relative to EJ-309 standard

Structure (SMILES) | LO relative to EJ-309 (loaded EJ-309, 0.1 wt. % ^6Li) | decrease of relative LO (single-dye solutions of bis-MSB, BBQ or E404, 0.1 wt. % ^6Li) | LO relative to EJ-309 (single dye solutions (bis-MSB, BBQ, E404) in 90:10 DIPN:IBA)
CCCCC(CC)COC(=O)CC(C(=O)OCC(CC)CCCC)S(=O)(=O)[O-].[Li+] (stereo not drawn) [^6LiDOSS, lithium 1,4-bis(2-ethylhexoxy)-1,4-dioxobutane-2-sulfonate] | 90% | 6 to 10% | 
CC(C)CC(=O)[O-].[6Li+] [^6LiIVA] |  |  | more than 80%
